# Assay results from PubChem BioAssay AID504444 (National Center for Advancing Translational Sciences (NCATS), 2011).
# Hit rate of the full screen: of about 360,000 compounds, about 7,500 (2.1%) were called active. The shares of active, inactive and inconclusive entries below differ from those in the screen. Calls come from the whole dose curve; as a rule, active = well fitted inhibition curve with a large enough effect; inconclusive = small, poorly fitted or top-dose-only effect, or effect the other way; inactive = flat fitted curve, though single readings scatter. Where the call is inconclusive, the potency comes from a doubtful curve fit.
# Experiment: Nrf2 qHTS screen for inhibitors; note: nearly all actives have a fitted effect of over 60% in size
# Conditions: A549 ARE-Fluc reporter, luciferase luminescence, 18-24 h; series mostly up to 46 µM
# Method in brief: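 Reporter: ARE-Fluc in A549. Exposure: 18-24 h, 37 °C, 5% CO2, 5% FBS OPTI-MEM. Readouts: fluorescent cytotoxicity (CellTiter-Fluor), then luminescent Nrf2 signal after BugLite.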
# Potency is the fitted concentration of half-maximal effect.
row,Compound,Potency
1,CCOc1ccc(C2C(C#N)=C(N)Oc3cc(O)ccc32)cc1OCC (stereo not given),"inconclusive: 6.51 µM [falling, single point]"
2,Cc1cc(C)n(CCc2nc(-c3cc4ccccc4o3)cs2)n1,"inconclusive: 29.1 µM [falling, single point]"
3,Cc1ccc(NC(=S)Nc2cccc(-c3n[nH]c(=S)o3)c2)cc1,"inconclusive: 14.6 µM [activator, partial curve]"
4,O=[N+]([O-])c1ccc(O)c(/C=N/Nc2nn[nH]n2)c1,inactive
5,O=C1C(Cc2c[nH]c3ccccc23)NC(=S)N1C1CCCCC1 (stereo not given),"inconclusive: 16.4 µM [falling, partial curve, poor fit]"
6,S=C(NCCCCN(Cc1ccc(Cl)cc1)c1ccc(Br)cn1)NCCCc1cnc[nH]1,"inconclusive: 3.26 µM [falling, partial curve, poor fit]"
7,Cc1ccccc1OCC(=O)N1N=C(C(F)(F)F)CC1(O)C(C)(C)C (stereo not given),inactive
8,CN(C)c1ccc(NS(=O)(=O)c2cccc(Cl)c2)cc1,"inconclusive: 9.2 µM [falling, partial curve]"
9,COc1ccccc1Oc1ccc(NC(=O)c2ccccc2C)cc1,"inconclusive: 6.51 µM [activator, single point]"
10,N#C/C(=C\c1ccc(-c2cc(Cl)ccc2Cl)o1)C(=O)Nc1ccccc1C(=O)O,inactive
11,CCOc1ccc(N2CC(C(=O)Nc3cccc(S(=O)(=O)N4CCCC4)c3)CC2=O)cc1 (stereo not given),"inconclusive: 23.1 µM [falling, partial curve]"
12,COc1ccccc1CC(=O)N1CCN(c2cccc(C(F)(F)F)c2)CC1,"inconclusive: 16.4 µM [falling, single point]"
13,N#Cc1ccc(CSc2nnc(-c3ccccc3)n2Cc2ccco2)cc1,"inconclusive: 8.2 µM [falling, partial curve, poor fit]"
14,CCOC(=O)c1[nH]cnc1C(=O)Nc1ccc(F)cc1,"inconclusive: 11.6 µM [falling, partial curve, poor fit]"
15,C/C(=N\NC(=O)COc1ccccc1-c1ccccc1)c1ccc(O)cc1O,"inconclusive: 29.1 µM [falling, single point]"
16,COc1ccc(-c2nsc3c(N4CCCCC4)ncnc23)cc1,"inconclusive: 0.058 µM [activator, full curve, poor fit]"
17,CN(C)c1nc(NCc2ccccc2)nc(SCC(=O)Nc2ccccc2)n1,active: 23.1 µM
18,Cc1cc(C)c(Cn2c(C(O)c3ccccc3)nc3ccccc32)c(C)c1 (stereo not given),inactive
19,N#C/C(=C(/O)COC(=O)CCC1CCCCC1)c1nc2ccccc2[nH]1,"inconclusive: 20.6 µM [falling, single point]"
20,CCOc1ccc(-c2c(C(=O)N/N=C/c3c[nH]c4ccccc34)nnn2-c2nonc2N)cc1,"inconclusive: 16.4 µM [falling, partial curve, poor fit]"
21,Cc1sc2ncnc(N3CCC(C(=O)N(C)CC(=O)Nc4ccc(Cl)c(C(F)(F)F)c4)CC3)c2c1C,active: 10.3 µM
22,CCOC(=O)C(=Cc1ccc(-n2ccnc2)cc1)C(=O)OCC,"inconclusive: 29.1 µM [falling, single point]"

# Filtered by structure: those above with an aryl methoxy group (3)
row,Compound,Potency
9,COc1ccccc1Oc1ccc(NC(=O)c2ccccc2C)cc1,"inconclusive: 6.51 µM [activator, single point]"
12,COc1ccccc1CC(=O)N1CCN(c2cccc(C(F)(F)F)c2)CC1,"inconclusive: 16.4 µM [falling, single point]"
16,COc1ccc(-c2nsc3c(N4CCCCC4)ncnc23)cc1,"inconclusive: 0.058 µM [activator, full curve, poor fit]"

# (cont.)

row,Compound,Potency
1,COc1ccc(COn2nnc3ccc(S(=O)(=O)N4CCOCC4)cc32)cc1F,"inconclusive: 4.61 µM [falling, partial curve, poor fit]"
2,CC(=O)O[C@H]1C(=O)[C@@]2(C)C([C@H](OC(=O)c3ccccc3)[C@]3(O)C[C@H](OC(=O)[C@H](O)[C@@H](NC(=O)c4ccccc4)c4ccccc4)C(C)=C1C3(C)C)[C@]1(OC(C)=O)CO[C@@H]1C[C@H]2O (stereo not given in full),inactive
3,O=C(COC(=O)CC1SC(N2CCCC2)=NC1=O)Nc1c(F)c(F)c(F)c(F)c1F (stereo not given),"inconclusive: 32.6 µM [falling, single point]"
4,S=C(NCc1cccs1)Nc1cc(Cl)cc(Cl)c1,"inconclusive: 29.1 µM [falling, single point]"
5,COc1ccc2[nH]cc(/C=C/c3cc[n+](C)cc3)c2c1,active: 10.3 µM
6,COc1ccc(Nc2ncnc3sc(-c4ccccc4)cc23)cc1OC,"inconclusive: 23.1 µM [falling, single point]"
7,O=C(NCCCN1CCN(c2ccccc2F)CC1)c1nnc(Cc2ccc(Cl)cc2Cl)o1,active: 18.4 µM
8,O=C(Nc1cccc(S(=O)(=O)NC2=NCCC2)c1)c1cc(-c2ccco2)nc2ccccc12,inactive
9,COc1ccccc1-c1c(-c2ccc(OCC(=O)NN)cc2O)n[nH]c1C(F)(F)F,inactive
10,CCN(c1ccc(NC(=O)COC(=O)C2CCN(c3ccc(C(F)(F)F)cn3)CC2)cc1)C(C)C,inactive
11,COc1ccc(C(=O)Nc2ccc3ccccc3c2)cc1,"inconclusive: 0.517 µM [activator, full curve, poor fit]"
12,Cc1ccc(N2C(=O)c3ccc(N)cc3C2=O)cc1C,"inconclusive: 4.61 µM [activator, full curve]"
13,C/C(CC(C)C)=N/Nc1ccc([N+](=O)[O-])cc1[N+](=O)[O-],"inconclusive: 0.0073 µM [falling, full curve, poor fit]"
14,CC(=O)NC1=NN(C(C)=O)C(C)(c2cccs2)S1 (stereo not given),inactive
15,COc1ccc(C(=O)c2cc([N+](=O)[O-])ccc2N2CCOCC2)cc1,"inconclusive: 14.6 µM [activator, partial curve, poor fit]"
16,Nc1c(-c2ccc(Cl)cc2)cnc2c(-c3ccc(F)cc3)cnn12,"inconclusive: 2.06 µM [activator, full curve]"
17,CCOC(=O)c1ccccc1NC(=O)Cn1c2ncccc2c(=O)n1-c1ccccc1,"inconclusive: 23.1 µM [activator, single point]"
18,CCC(C)c1ccc(NC(=O)COC(=O)CCNS(=O)(=O)c2cccs2)cc1 (stereo not given),"inconclusive: 6.51 µM [activator, partial curve]"
19,COc1ccc(NC(=O)Nc2ccc(C(C)C)cc2)cc1,"inconclusive: 1.64 µM [activator, full curve]"
20,CCCOc1cc(C)c(S(=O)(=O)NCc2cccs2)cc1C,"inconclusive: 23.1 µM [falling, single point]"
21,Cc1cc(NC(=O)c2ccc(Cl)cc2)cc(C)c1OCC(=O)N1CCOCC1,inactive
22,O=C(CSc1nnc(-c2ccncc2)n1Cc1ccco1)N1c2ccccc2Sc2ccc(Cl)cc21,"inconclusive: 29.1 µM [falling, single point]"

row,Compound,Potency
1,COc1ccc(-n2c(Cc3cccn3C)nnc2SCC(=O)Nc2ccc(Cl)cc2)cc1,"inconclusive: 0.58 µM [falling, full curve, poor fit]"
2,CCCC(=O)Nc1nc(-c2ccc3c(c2)OCCO3)cs1,"inconclusive: 0.517 µM [activator, full curve]"
3,Cc1ccc(S(=O)(=O)NNC(=O)c2cnn(-c3ccccc3)c2C(F)(F)F)cc1,"inconclusive: 29.1 µM [falling, single point]"
4,Nc1ccccc1NC1CCCCC1,inactive
5,CC(C(=O)N1CCc2ccccc21)N(C)CC(=O)Nc1ccc(F)cc1 (stereo not given),"inconclusive: 29.1 µM [activator, partial curve, poor fit]"
6,COc1ccc(NC(=O)C(c2ccc(OC)cc2)N(C)C(=O)CC2NC(=O)NC2=O)cc1 (stereo not given),inactive
7,CN(Cc1ccccc1)C(=O)CSc1cc(=O)n(C)c2ccccc12,"inconclusive: 18.4 µM [activator, single point]"
8,COc1ccc(C2=NN(C(=O)CSc3nc(=O)n4cc(C)ccc4n3)C(c3ccc(C)cc3)C2)cc1 (stereo not given),"inconclusive: 13 µM [falling, partial curve]"
9,Cn1nc(-c2ccc(C(=O)NC3CCCCC3)cc2)c2ccccc2c1=O,"inconclusive: 13 µM [falling, partial curve, poor fit]"
10,O=C(NC1CC1)c1ccc2c(c1)N(Cc1ccc(Cl)cc1)CCS2,"inconclusive: 25.9 µM [falling, single point]"
11,Cc1ccccc1-n1c(SCC(=O)c2c(N)n(C)c(=O)n(C)c2=O)nc2sc3c(c2c1=O)CCCC3,"inconclusive: 25.9 µM [falling, partial curve, poor fit]"
12,O=c1cc(-c2ccccc2)nc2nc(SCc3ccccc3)[nH]n12,"inconclusive: 25.9 µM [activator, single point]"
13,CCCS(=O)(=O)Nc1cc2c(cc1NCc1ccccc1)n(C)c(=O)n2C,inactive
14,O=C(Nc1ccc(NS(=O)(=O)c2ccccc2)cc1)c1cccnc1,"inconclusive: 0.651 µM [activator, partial curve]"
15,Cc1cc(N2C(=O)C(O)=C(C(=O)c3cc4ccccc4o3)C2c2ccc(OC(C)C)cc2)no1 (stereo not given),"inconclusive: 7.31 µM [falling, partial curve, poor fit]"
16,CC1CCN(c2ncnc3c2cnn3Cc2ccc(Cl)cc2)CC1,"inconclusive: 20.6 µM [falling, single point]"
17,Cc1ccc(NC(=O)CCC(=O)OC(C(=O)c2ccc(C)c(C)c2)c2ccccc2)c(C)c1 (stereo not given),"inconclusive: 6.51 µM [activator, partial curve, poor fit]"
18,CCC(C(=O)NCCc1ccc(C)cc1)n1nc(C)c2c(C)n(-c3ccccc3)nc2c1=O (stereo not given),active: 16.4 µM
19,S=C(NCc1ccncc1)Nc1ccc(Br)cc1Cl,"inconclusive: 29.1 µM [falling, single point]"
20,COc1ccc(-c2cn3c(n2)sc2cc(C(=O)Nc4cc(Cl)ccc4C)ccc23)cc1,inactive
21,Cc1cccc(C)c1NC(=O)Cn1nc(C)c2sc3ccccc3c2c1=O,active: 20.6 µM
